Test results as given in patent US20190106460A1, “BINDING INHIBITORS OF THE BETA. TRANSDUCIN REPEAT-CONTAINING PROTEIN” (priority 2011, published 2019).
Part of at least one peptide drawing is inferred or uncertain, most often the ends. Non-standard residues stand in square brackets, D forms with d. Residues, ends and D or L forms follow the SMILES beside them. No end group written: not given here.

Protein sequences, listed by entry. Tags and fused reporters are not part of them. Lines headed by an entry give the natural chain unless they say otherwise; changes in a name come on top.
UniProt Q9Y297: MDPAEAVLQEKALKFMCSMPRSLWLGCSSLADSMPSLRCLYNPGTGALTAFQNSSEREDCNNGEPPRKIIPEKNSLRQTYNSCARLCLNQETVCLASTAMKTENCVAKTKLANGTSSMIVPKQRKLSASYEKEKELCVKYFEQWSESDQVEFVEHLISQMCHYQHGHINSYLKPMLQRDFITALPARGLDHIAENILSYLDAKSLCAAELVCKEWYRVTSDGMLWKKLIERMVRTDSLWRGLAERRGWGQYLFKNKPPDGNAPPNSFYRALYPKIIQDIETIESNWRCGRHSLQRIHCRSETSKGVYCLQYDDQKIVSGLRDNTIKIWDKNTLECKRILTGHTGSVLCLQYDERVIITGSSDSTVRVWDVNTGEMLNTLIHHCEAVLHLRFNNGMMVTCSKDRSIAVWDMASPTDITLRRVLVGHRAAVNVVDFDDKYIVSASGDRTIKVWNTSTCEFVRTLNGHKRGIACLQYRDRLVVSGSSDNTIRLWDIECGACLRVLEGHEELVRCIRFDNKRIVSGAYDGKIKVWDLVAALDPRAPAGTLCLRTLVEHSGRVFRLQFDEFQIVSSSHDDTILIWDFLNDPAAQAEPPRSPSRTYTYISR

Target: βTrCP (Homo sapiens, UniProt Q9Y297)
Test: Fluorescence polarisation (FP) binding assay with fluorescein-tagged IκB peptide
Conditions: Tables 1, 3, 7, 8; 10 nM fluorescein-tagged IκB peptide

Molecule | IC50
CC[C@H](C)[C@H](NC(=O)CNC(=O)[C@H](CCC(=O)O)NC(=O)C(N)CC(=O)O)C(=O)N[C@@H](Cc1ccccc1)C(=O)N[C@@H](CCC(=O)O)C(N)=O (single isomer, unassigned) [dEGIFE-NH2] (H-[dD]EGIFE-NH2) | > 100 µM
DAGIFE-NH2 [DAGIFE-NH2] | > 100 µM
